Values of other authors, collected in patent publication US20220054404A1, “SUBCUTANEOUS ADMINISTRATION OF NANOPARTICLES COMPRISING AN MTOR INHIBITOR AND ALBUMIN FOR TREATMENT OF DISEASES” (Abraxis BioScience, LLC, priority 2019, published 2022).
Read-outs that look alike come from different tables or passages of the source. At least one compound was matched to its structure with a doubt left.

How the values were obtained:
mTORC1 [1] = target: T1, mTORC1 (Homo sapiens, UniProt P42345); details: HUVEC cells; printed 10 nM-1 μM
T1 construct: and in HUVEC cells (10 nM-1 μM); endogenous in cells; host or cells: HUVEC

mTORC1 [2] = target: T1, mTORC1; details: HEK293 cells

## COC(=O)Nc1ccc(-c2nc(N3CCOCC3)c3cnn(C4CCN(C(=O)OC)CC4)c3n2)cc1 [WYE-354]
mTORC1 [1]
  Concentration at which mTORC1 is inhibited: 10 nM-1 μM
mTORC1 [2]
  Concentration at which mTORC1 is inhibited: 0.2 μM-5
